From publication PMC7819943, “Rice protein-binding microarrays: a tool to detect cis-acting elements near promoter regions in rice” come the findings set out here.

The other results are listed elsewhere or left out.

This assay deals with T1, OsSMF1 (Oryza sativa, UniProt Q6ZLB0 1-436).
T1 sequence: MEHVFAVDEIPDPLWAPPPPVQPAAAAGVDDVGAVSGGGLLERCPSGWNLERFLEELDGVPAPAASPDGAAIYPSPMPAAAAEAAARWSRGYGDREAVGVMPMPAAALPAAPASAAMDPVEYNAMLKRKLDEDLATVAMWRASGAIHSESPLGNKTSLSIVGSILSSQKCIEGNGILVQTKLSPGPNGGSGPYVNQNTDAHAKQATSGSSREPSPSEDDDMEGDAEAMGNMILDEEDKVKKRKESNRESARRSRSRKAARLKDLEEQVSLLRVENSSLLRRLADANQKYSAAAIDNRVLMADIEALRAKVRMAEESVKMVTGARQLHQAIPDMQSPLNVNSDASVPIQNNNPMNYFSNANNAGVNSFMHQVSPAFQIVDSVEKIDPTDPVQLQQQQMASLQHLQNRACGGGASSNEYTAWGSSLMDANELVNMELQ
Description: protein-binding microarray (RPBM); PBS, 2% BSA, 51.3 ng/ul salmon testes DNA, 50 uM zinc acetate, 200 nM TF, 25 C, 1 h; high values mean tight binding. The conditions noted are these: protein: recombinant; tags: N-terminal polyhistidine and DsRed monomer fusion (pET32a); chain copies: 2; label: CyDye5-dUTP incorporated in the synthesized complementary strand; 3' TTTTT single-stranded linker to array surface; dsDNA, one strand shown. An outline of the steps: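 Per-feature fluorescence intensity (arbitrary units), read on an Axon 4000B scanner, is the binding signal. Transcription factors carrying an N-terminal polyhistidine tag and DsRed fusion were expressed in E. coli BL21-CodonPlus and purified on Ni–NTA. A custom Agilent array, made double-stranded by primer extension with Cy5-dUTP and blocked with 2% BSA, was incubated with 200 nM protein in PBS, 2% BSA, salmon testes DNA and 50 µM zinc acetate at 25 °C for 1 h and then washed.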
Turning to “AAGGTGGTGGTCGAGGATGGCGTCATGCGCGTGTGGGATGCGGAGTCACCTAGTGCAG”, the binding signal is 4410 fluorescence intensity (a.u.). The value for “TGCGTCTCCCTTCCCCGGGCTATCCATCCATCTATCTACCCGGAGTCACCTAGTGCAG” was 3320 fluorescence intensity (a.u.). “GAGGTTTGAATCTCAACAGACACGCATTTCTCATAGCACACGGAGTCACCTAGTGCAG”: the binding signal is 4310 fluorescence intensity (a.u.). The value for “GTTCCTGTTGTTGCGTCTACTGCTGCTTCCGTGTCGCTGCCGGAGTCACCTAGTGCAG” was 3550 fluorescence intensity (a.u.). Consider “TGATGGGGAAAAGAATATGCCACCTCATTGGGCTTTTATCCGGAGTCACCTAGTGCAG”, for which the binding signal is 5600 fluorescence intensity (a.u.). With “ACGAAATCGACGCACGTGTAGACATCATGTGACACACAGACGGAGTCACCTAGTGCAG”, the binding signal was 5620 fluorescence intensity (a.u.). As to “GCGGTCGGTAGCTGTACATACGTCACCAGTTCGTACGGTGCGGAGTCACCTAGTGCAG”, the binding signal is 13200 fluorescence intensity (a.u.). The value for “GTAGTGCACTAGTGCGTCACACTCACACACACACACAAGCCGGAGTCACCTAGTGCAG” was 4100 fluorescence intensity (a.u.). On to “GCCTCTTGGCGCCGTCGACCTCCGCGCCGAGGAGGCCCTGCGGAGTCACCTAGTGCAG”, for which the binding signal was 5520 fluorescence intensity (a.u.). The same measure for “GTGAGATGACGGCATCATCTGATGGTTCTATAAATACTCCCGGAGTCACCTAGTGCAG”: 3940 fluorescence intensity (a.u.). Consider “GCGCAGCTGGCGCGGAGCATCCACGAGCTCGCGGCCACGTCGGAGTCACCTAGTGCAG”, for which the binding signal was 3840 fluorescence intensity (a.u.). The value for “CTCAAAACCCAAAATGTATAGATGACATTTCAATTCAAACCGGAGTCACCTAGTGCAG” was 3270 fluorescence intensity (a.u.). The same measure for “ATGGGTAATATGTCTCACCCTGCTTGGTTGGTTTCGCATTCGGAGTCACCTAGTGCAG”: 34000 fluorescence intensity (a.u.); for “ATATGAATATTACTTTAAGTGTGACTCATAATTCTATTAACGGAGTCACCTAGTGCAG”: 4680 fluorescence intensity (a.u.); for “TGACATGATGGGCCACCCTGTCAGCCTCTCATCGTCTCCACGGAGTCACCTAGTGCAG”: 5560 fluorescence intensity (a.u.). The same measure for “AAGAGAAGGGTCACTAATACGTGGACCCTACATATTGACGCGGAGTCACCTAGTGCAG”: 7690 fluorescence intensity (a.u.). For the sequence “ATCAAGCTTTCGTCAGATCTCACGCTTATTTCTTCTCTCCCGGAGTCACCTAGTGCAG”, the binding signal was 3480 fluorescence intensity (a.u.).

Regarding “AGTGAAAATCGTGATAAACATCATTGATGACGTGAATAATCGGAGTCACCTAGTGCAG”, the binding signal was 3640 fluorescence intensity (a.u.). The same measure for “CAGGCTCCTCCTCACAACGCCGAAGCCACGGGATGACGCTCGGAGTCACCTAGTGCAG”: 3410 fluorescence intensity (a.u.); for “GGGTACCAGGAGGGAGCACACGTTCACCACGTGGAATCTACGGAGTCACCTAGTGCAG”: 5750 fluorescence intensity (a.u.); for “CCTTTACTGTCTCAGCAACGTGCGTGGCTTCTTTTAAGTCCGGAGTCACCTAGTGCAG”: 6410 fluorescence intensity (a.u.).

As for “CTCAGTAAAATCAACACTAGTTAATCTGGTCAACACATTACGGAGTCACCTAGTGCAG”, the binding signal is 29500 fluorescence intensity (a.u.). Turning to “TTCCCCACCCACCTCCCACCCTCCCCTCTCCAACCACACCCGGAGTCACCTAGTGCAG”, the binding signal was 3320 fluorescence intensity (a.u.). The same measure for “CCACGCTAACTCAGCCACCACGTAGGCCAAATCCGGGATCCGGAGTCACCTAGTGCAG”: 5500 fluorescence intensity (a.u.). The same measure for “GACTACGCGTACGCCACGCCACAACGCTTCTCGCTCTCCCCGGAGTCACCTAGTGCAG”: 4510 fluorescence intensity (a.u.). The value for “CTAGGCAAGCATCCCACCTTCGTCGACCCACTGCTGCCGGCGGAGTCACCTAGTGCAG” was 4050 fluorescence intensity (a.u.). Take “CTACCTGCGTCGACGTGTGACACCCAAATCATCGGATTCACGGAGTCACCTAGTGCAG”: the binding signal was 4680 fluorescence intensity (a.u.). For the sequence “CCCCGGGAGTAGGGTCGCTGATTACCTGGTGGGGAAGCACCGGAGTCACCTAGTGCAG”, the binding signal is 3280 fluorescence intensity (a.u.). The same measure for “TCCAAGAAACCTGTCCATGAAGATGATGTTGGCTGGCGTTCGGAGTCACCTAGTGCAG”: 3770 fluorescence intensity (a.u.); for “GAGTAAGGCCGCGCGGCGCGGCGCCGAGCCGCGTGTCGCGCGGAGTCACCTAGTGCAG”: 4820 fluorescence intensity (a.u.). For “TGACCATGAATTACGTGTTTTATTCGTAGTCAAATTTATTCGGAGTCACCTAGTGCAG”, the binding signal is 3510 fluorescence intensity (a.u.). The value for “GTGCCGTGCGTGCCAGCGTGCGTGCATGCATGCATGCACGCGGAGTCACCTAGTGCAG” was 4270 fluorescence intensity (a.u.).

Consider “GTGCGTGGAAGTCCATGGCCGTCGTCGCCTCCACCTTCCACGGAGTCACCTAGTGCAG”, for which the binding signal was 3140 fluorescence intensity (a.u.). The value for “CACGCGGGACCATCGTGGTCCCACGTTTTGGCGGTGCGGGCGGAGTCACCTAGTGCAG” was 5060 fluorescence intensity (a.u.); that for “ATGGGCAACAAGCTTACGTCGAACGATACCTTGGCTAACTCGGAGTCACCTAGTGCAG” was 3360 fluorescence intensity (a.u.).

For the sequence “GTAGTACATACATACATACACGACTAAAATACACGTACGTCGGAGTCACCTAGTGCAG”, the binding signal is 3200 fluorescence intensity (a.u.). The value for “AGTGGGTGGTGGTGGTGGTGGTGGTGCGAGGCCGTCGCTGCGGAGTCACCTAGTGCAG” was 3430 fluorescence intensity (a.u.). “TCTTTATAATAGGAGCACATCTCAACCGTTGGATCGGGCGCGGAGTCACCTAGTGCAG”: the binding signal was 4420 fluorescence intensity (a.u.). The same measure for “TCAATGTGTGCGTGTGTGGCCTATCTTTTCTTACTCTCTTCGGAGTCACCTAGTGCAG”: 4970 fluorescence intensity (a.u.). For “TGATTACACGTACAAAATGTACACGTGTCACTCTATGGGGCGGAGTCACCTAGTGCAG”, the binding signal is 25300 fluorescence intensity (a.u.).

Turning to “CTGGTTCGATCTGTACACGTGTATAAGCTCTACCATCTTGCGGAGTCACCTAGTGCAG”, the binding signal was 11800 fluorescence intensity (a.u.).

On to “ATCGATTCTCTTCATGTGATCTTCACGTGTCCGGCCAATTCGGAGTCACCTAGTGCAG”, for which the binding signal was 3940 fluorescence intensity (a.u.).
